The values below come from PubChem BioAssay.

One assay is described as follows: PubChem AID 1586. To be noted: yeast two-hybrid polyglutamine protein interaction, reporter readout; measured here: averaged growth delta OD.
Assay [1] can be described thus: enhancers of SMN2 over SMN1 splicing, cell-based, SMN2/SMN1 luciferase reporters (AID 1598). The following applies: SMN2 vs SMN1 luciferase splicing reporter cells, at 10 µM; SMN1 luciferase ratio: measured here: SMN1 luciferase reporter average; SMN2 luciferase ratio: measured here: SMN2 luciferase reporter average, stronger effect = higher value. (In general: A reporter such as luciferase makes a cellular process visible.)

The nature of assay [2]: protection against mutant huntingtin cytotoxicity, PC12 cells, LDH release (AID 1610). The following applies: PC12 mutant huntingtin toxicity, final LDH at 4 uM, stronger effect = lower value. (In general: LDH in the medium is a marker of cell lysis.)

This is one part of the list. Shown are side measurements of this screen, not its main read-out; they come without a call. For some of these results: Most of these compounds were active or inconclusive in the main read-out, so they are no random draw.

With `c1ccc2c(c1)CCCC2C1=NCCN1` (stereo unspecified), the signal change (36 h minus 0 h) in the assay “PubChem AID 1586” amounted to 0.068. In addition, in assay [1], the SMN1 luciferase ratio was found to be 0.93 and the SMN2 luciferase ratio is 1.02. Moreover, in assay [2], the normalised LDH release amounted to 0.712.

As to `CC(C)NCC(O)c1ccc2ccccc2c1` (stereo unspecified), the signal change (36 h minus 0 h) in the assay “PubChem AID 1586” came out at 0.312. Further, in assay [1], the SMN1 luciferase ratio is 0.9 and the SMN2 luciferase ratio was 0.95. Further, the normalised LDH release in assay [2] worked out at 1.25.

The molecule `CC(=O)Oc1ccc2c(c1)CCC1C2CCC2(C)C(=O)CCC12` (stereo unspecified) had a signal change (36 h minus 0 h) in the assay “PubChem AID 1586” of 0.024. In assay [1], the SMN1 luciferase ratio was found to be 0.88 and the SMN2 luciferase ratio is 0.95. Moreover, the normalised LDH release in assay [2] is 1.13.

The molecule `Nc1ccc(S(=O)(=O)Nc2ncccn2)cc1` gave a signal change (36 h minus 0 h) in the assay “PubChem AID 1586” of 0.141. Moreover, in assay [1], the SMN1 luciferase ratio is 0.84 and the SMN2 luciferase ratio was 0.94. Further, the normalised LDH release in assay [2] stood at 0.837.

In turn, `S=c1nc[nH]c2nc[nH]c12` had a signal change (36 h minus 0 h) in the assay “PubChem AID 1586” of 0.126. In assay [1], the SMN1 luciferase ratio came to 0.81 and the SMN2 luciferase ratio came to 0.88. For the same molecule, the normalised LDH release in assay [2] was determined as 1.11.

For the molecule `C[C@@H]1CC2C3C[C@H](F)C4=CC(=O)C=C[C@]4(C)[C@@]3(F)[C@@H](O)C[C@]2(C)[C@@]1(O)C(=O)COC(=O)C(C)(C)C` (stereo partly specified), the signal change (36 h minus 0 h) in “PubChem AID 1586” was 0.034. For the same molecule, in assay [1], the SMN1 luciferase ratio was found to be 0.9 and the SMN2 luciferase ratio was determined as 0.99. Further, in assay [2], the normalised LDH release is 0.182.

As for `CCCC(CCC)C(=O)O`, the signal change (36 h minus 0 h) in “PubChem AID 1586” is 0.183. Moreover, in assay [1], the SMN1 luciferase ratio worked out at 0.94 and the SMN2 luciferase ratio came out at 0.98. This molecule yielded a normalised LDH release in assay [2] of 0.911.

In “PubChem AID 1586”, `O=c1[nH]cc(F)c(=O)[nH]1` returned a signal change (36 h minus 0 h) of 0.0683. For the same molecule, in assay [1], the SMN1 luciferase ratio came to 0.51 and the SMN2 luciferase ratio turned out to be 0.58. In assay [2], this molecule came in with a normalised LDH release of 0.884.

For the molecule `CSCCC(N)C(=O)NC(CC(C)C)C(=O)NC(Cc1ccccc1)C(=O)O` (stereo unspecified), the signal change (36 h minus 0 h) in the assay “PubChem AID 1586” was 0.101. In assay [1], the SMN1 luciferase ratio turned out to be 0.87 and the SMN2 luciferase ratio turned out to be 0.94. In assay [2], this molecule returned a normalised LDH release of 0.676.

Consider `O=C(O)CCCCC1SCC2NC(=O)NC21` (stereo unspecified), for which the signal change (36 h minus 0 h) in “PubChem AID 1586” came to 0.0453. In addition, in assay [1], the SMN1 luciferase ratio came to 1.04 and the SMN2 luciferase ratio is 0.83. Moreover, the normalised LDH release in assay [2] stood at 1.57.

`CC(C)C[C@@H](NC(=O)OCC1c2ccccc2-c2ccccc21)C(=O)O` came in with a signal change (36 h minus 0 h) in “PubChem AID 1586” of 0.438. Besides, in assay [1], the SMN1 luciferase ratio was 1.32 and the SMN2 luciferase ratio came to 1.23. The normalised LDH release in assay [2] came out at 1.1.

In “PubChem AID 1586”, `COc1ccc(Cl)cc1C(=O)NCCc1ccc(S(=O)(=O)NC(=O)NC2CCCCC2)cc1` returned a signal change (36 h minus 0 h) of 0.152. For the same molecule, in assay [1], the SMN1 luciferase ratio is 0.91 and the SMN2 luciferase ratio worked out at 0.94. Besides, the normalised LDH release in assay [2] stood at 0.826.

In turn, `CO[C@@H]1[C@@H](OC(N)=O)[C@@H](O)[C@H](Oc2ccc3c(O)c(NC(=O)c4ccc(O)c(CC=C(C)C)c4)c(=O)oc3c2C)OC1(C)C` came in with a signal change (36 h minus 0 h) in the assay “PubChem AID 1586” of 0.149. For the same molecule, in assay [1], the SMN1 luciferase ratio is 0.9 and the SMN2 luciferase ratio was determined as 0.98. This molecule returned a normalised LDH release in assay [2] of 0.964.

With `CC(Cc1ccc(O)c(O)c1)(NN)C(=O)O` (stereo unspecified), the signal change (36 h minus 0 h) in the assay “PubChem AID 1586” is 0.157. In assay [1], the SMN1 luciferase ratio was 0.89 and the SMN2 luciferase ratio came to 0.89. The normalised LDH release in assay [2] is 0.975.

On to `COc1cc(S(C)=O)ccc1-c1nc2ncccc2[nH]1` (stereo unspecified), for which the signal change (36 h minus 0 h) in the assay “PubChem AID 1586” is 0.0932. For the same molecule, in assay [1], the SMN1 luciferase ratio was 0.96 and the SMN2 luciferase ratio came out at 0.85. In assay [2], the normalised LDH release came to 1.01.

As to `C=C1C(=O)O[C@@H]2C3OC3(C)CC/C=C(\C)CC[C@@H]12` (stereo partly specified), the signal change (36 h minus 0 h) in “PubChem AID 1586” turned out to be 0.09. Also, in assay [1], the SMN1 luciferase ratio turned out to be 0.8 and the SMN2 luciferase ratio was 0.88. Besides, the normalised LDH release in assay [2] was 0.571.

With `Nc1ncn([C@@H]2O[C@H](CO)[C@@H](O)[C@H]2O)c(=O)n1`, in “PubChem AID 1586”, the signal change (36 h minus 0 h) is 0.197. In assay [1], the SMN1 luciferase ratio came to 0.72 and the SMN2 luciferase ratio was found to be 0.92. The normalised LDH release in assay [2] stood at 0.367.

`CCCCOc1ccc(OCCCN2CCOCC2)cc1` came in with a signal change (36 h minus 0 h) in “PubChem AID 1586” of 0.606. Besides, in assay [1], the SMN1 luciferase ratio is 1.06 and the SMN2 luciferase ratio was determined as 0.88. The molecule further registered a normalised LDH release in assay [2] of 0.998.

In turn, `CN(C)C(=O)Oc1ccc[n+](C)c1` yielded a signal change (36 h minus 0 h) in the assay “PubChem AID 1586” of 0.176. For the same molecule, in assay [1], the SMN1 luciferase ratio came out at 0.88 and the SMN2 luciferase ratio amounted to 0.88. Further, the normalised LDH release in assay [2] was found to be 0.781.
